Source: PubChem BioAssay AID1259308 (NCATS, 2017)
Assay: 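Candidate targets for better recombinant protein yield in mammalian cells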 (primary screen). Cells: human HEK293 embryonic kidney cells stably expressing firefly luciferase (HEK-CMV-Luc2-Hygro). Knock-down reagent: single siRNA against human genes, 0.8 pmol siRNA per well. Time to read-out: 72 h. Measurement: 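Reporter luminescence and viable-cell signal on separate replicate plates, given as percent of non-targeting control and median/MAD z-scores, plus per-cell luciferase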. Reading the numbers: total luciferase, z-score and total luciferase, % of control: higher = more reporter protein produced; luciferase per cell, z-score: higher = more reporter output per viable cell. Rule for the call: 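Active when the median/MAD z-score for overall luciferase is greater than 3; a gene was taken forward for validation with new siRNAs if at least two of its three siRNAs passed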. Meaning of the calls: active = raised luciferase; inactive = no rise.
The whole screen tested about 59,000 reagents; this is an unselected part. About 1,510 of all reagents (2.6%) were called active. 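Calls use total luciferase alone and ignore viability, so some active siRNAs may act by altering cell number.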 Further read-outs or replicates are left out here.

| gene knocked down | PubChem SID | total luciferase, z-score | total luciferase, % of control | luciferase per cell, z-score | Outcome |
| --- | --- | --- | --- | --- | --- |
| SLC39A1 | SID160730968 | 0.134 | 84.6 | -0.197 | inactive |
| SLC39A1 | SID160738502 | -0.401 | 73.9 | 0.136 | inactive |
| SLC39A1 | SID160738503 | 0.258 | 87 | -0.0655 | inactive |
| C16orf96 | SID160764597 | -0.69 | 68.2 | -0.3 | inactive |
| C16orf96 | SID160764598 | -0.284 | 76.2 | 0.376 | inactive |
| C16orf96 | SID160764599 | -0.374 | 74.4 | -0.311 | inactive |
| SACK1B | SID160761873 | -0.365 | 74.6 | -0.657 | inactive |
| SACK1B | SID160761874 | 0.291 | 87.7 | -0.344 | inactive |
| SACK1B | SID160761875 | 2.2 | 126 | 1.64 | inactive |
| LRPAP1 | SID160776739 | -0.539 | 71.2 | -0.332 | inactive |
| LRPAP1 | SID160776740 | 2.35 | 129 | 3.32 | inactive |
| LRPAP1 | SID160776741 | 1.97 | 121 | 1.36 | inactive |
| SYT17 | SID160741320 | 2.2 | 126 | 1.62 | inactive |
| SYT17 | SID160741321 | 1.43 | 110 | 0.771 | inactive |
| SYT17 | SID160741322 | -0.192 | 78.1 | -0.855 | inactive |
| ATP6V0E2-AS1 | SID160767280 | 0.932 | 100 | 0.882 | inactive |
| ATP6V0E2-AS1 | SID160767281 | -0.747 | 67 | -0.0609 | inactive |
| ATP6V0E2-AS1 | SID160767282 | 3.77 | 157 | 2 | active |
| RPS11 | SID160716178 | -3.11 | 19.9 | -3.03 | inactive |
| RPS11 | SID160716179 | -1.67 | 48.6 | -0.575 | inactive |
| RPS11 | SID160716180 | -2.64 | 29.4 | -3.15 | inactive |
| TIMM9 | SID160738039 | 0.636 | 94.5 | 0.184 | inactive |
| TIMM9 | SID160738040 | -0.304 | 75.8 | -0.4 | inactive |
| TIMM9 | SID160738041 | -0.485 | 72.2 | 0.587 | inactive |
| PPP4R3A | SID160744059 | 3.98 | 161 | 3.43 | active |
| PPP4R3A | SID160744060 | -0.0388 | 81.1 | -0.556 | inactive |
| PPP4R3A | SID160744061 | -0.0641 | 80.6 | -0.458 | inactive |
| FAM117B | SID160732568 | 1.3 | 108 | 0.298 | inactive |
| FAM117B | SID160759026 | -0.949 | 63 | -0.312 | inactive |
| FAM117B | SID160759027 | -0.497 | 72 | -0.515 | inactive |
| CD79B | SID160735251 | -1.19 | 58.2 | -0.445 | inactive |
| CD79B | SID160739802 | -2 | 42.1 | -2.28 | inactive |
| CD79B | SID160739814 | -0.402 | 73.9 | 0.151 | inactive |
| SGTA | SID160716658 | 0.293 | 87.7 | 0.674 | inactive |
| SGTA | SID160716659 | 0.53 | 92.4 | 0.502 | inactive |
| SGTA | SID160716660 | 1.6 | 114 | 1.91 | inactive |
| SPTA1 | SID160717301 | 0.368 | 89.2 | 0.799 | inactive |
| SPTA1 | SID160717302 | 1.25 | 107 | 1.1 | inactive |
| SPTA1 | SID160717303 | -0.759 | 66.8 | -1.26 | inactive |
| TRAM1 | SID160736346 | 5.3 | 187 | 3.02 | active |
| TRAM1 | SID160736348 | -0.251 | 76.9 | -0.771 | inactive |
| TRAM1 | SID160736349 | 0.0496 | 82.9 | -0.295 | inactive |
| KAT6B | SID160736461 | 0.442 | 90.7 | 1.82 | inactive |
| KAT6B | SID160736462 | 0.221 | 86.3 | -0.364 | inactive |
| KAT6B | SID160736463 | -0.457 | 72.8 | -1.01 | inactive |
| HMGN2P18 | SID160726121 | -0.126 | 79.4 | -0.204 | inactive |
| HMGN2P18 | SID160726122 | 2.36 | 129 | 1.82 | inactive |
| HMGN2P18 | SID160770346 | 0.422 | 90.3 | 0.102 | inactive |
| IRX2 | SID160759349 | -0.275 | 76.4 | 0.748 | inactive |
| IRX2 | SID160759352 | -0.531 | 71.3 | -0.205 | inactive |
| IRX2 | SID160759353 | 1.53 | 112 | 2.52 | inactive |
| CDSN | SID160732274 | -2.3 | 36.1 | -2.85 | inactive |
| CDSN | SID160741362 | 0.758 | 97 | 0.42 | inactive |
| CDSN | SID160741373 | 3.94 | 160 | 3.24 | active |
| FBXO17 | SID160755178 | 4.63 | 174 | 2.4 | active |
| FBXO17 | SID160755179 | 0.283 | 87.5 | 1.17 | inactive |
| FBXO17 | SID160755180 | -0.975 | 62.5 | -0.688 | inactive |

Entries above whose gene name begins with L or l:
| gene knocked down | PubChem SID | total luciferase, z-score | total luciferase, % of control | luciferase per cell, z-score | Outcome |
| --- | --- | --- | --- | --- | --- |
| LRPAP1 | SID160776739 | -0.539 | 71.2 | -0.332 | inactive |
| LRPAP1 | SID160776740 | 2.35 | 129 | 3.32 | inactive |
| LRPAP1 | SID160776741 | 1.97 | 121 | 1.36 | inactive |
